Reference: patent publication US20220119521A1
No constants are given. Whether binding was seen depends on the method and setting. Some binding calls cover weakened binding; strength is not graded here.

Columns and labels:
[1] = biological target: human MAdCAM (Mucosal addressin cell adhesion molecule), full length (human) (UniProt Q13477); assay: hybridoma sub-clone screening (assays described below in the filing)
[2] = biological target: human MAdCAM (Mucosal addressin cell adhesion molecule), full length (human) (UniProt Q13477); assay: IHC, human ileum sections
[3] = biological target: human MAdCAM (Mucosal addressin cell adhesion molecule), full length (human) (UniProt Q13477); assay: FACS, CHO cells expressing human MAdCAM
[4] = biological target: human MAdCAM (Mucosal addressin cell adhesion molecule), full length (human) (UniProt Q13477); assay: IHC, human tissue
[5] = biological target: human MAdCAM (Mucosal addressin cell adhesion molecule), full length (human) (UniProt Q13477); assay: binding to CHO cells expressing human MAdCAM

Measured: binding

B1: anti-MAdCAM monoclonal antibody 6.73.2 (antibody, human IgG4, kappa, V domains shown)
VH: EVQLLESGGDLVQPGGSLRLSCAASGFTFRSYAMNWVRQAPGKGLEWVSVISGRGGTTYYADSVKGRFTISRDNSKNTLYLQMNSLRAEDAAVYYCAKIAVAGEGLYYYYGMDVWGQGTTVTVSS
VL: DIQMTQSPSSLSASVGDRVTFTCRASQNITNYLNWYQQKPGKAPKLLIYAASSLPRGVPSRFRGSGSGTDFTLTISSLQPEDFATYYCQQSYSNPPECGFGQGTTLDIKR
not listed: [5]
binds: all other assays above

B2: anti-MAdCAM monoclonal antibody 6.34.2 (antibody, human IgG4, kappa, V domains shown)
VH: QVQLVESGGGVVQPGRSLRLSCAASGFTFSSYGMHWVRQAPGKGLEWVAVISNDGNNKYYADSVKGRFTISRDNSKNTLYLQMNSLSAEDTAVYYCARDSTAITYYYYGMDVWGQGTTVTVSS
VL: DIQMTQSPSSLSASVGDRVTITCRASQNISSYLNWFQQKPGKAPKLLIYAASGLKRGVPSRFSGSGSGTDFTLTIRTLQPDDFATYSCHQSYSLPFTFGPGTKVDIKR
not listed: [5]
binds: all other assays above

B3: modified anti-MAdCAM monoclonal antibody 6.34.2-mod (antibody, human IgG2, kappa, V domains shown)
VH: QVQLVESGGGVVQPGRSLRLSCAASGFTFSSYGMHWVRQAPGKGLEWVAVISNDGNNKYYADSVKGRFTISRDNSKNTLYLQMNSLRAEDTAVYYCARDSTAITYYYYGMDVWGQGTTVTVSS
VL: DIQMTQSPSSLSASVGDRVTITCRASQSISSYLNWYQQKPGKAPKLLIYAASGLKRGVPSRFSGSGSGTDFTLTISSLQPEDFATYYCHQSYSLPFTFGPGTKVDIKR
binds: [5]

B4: anti-MAdCAM monoclonal antibody 7.26.4 (antibody, human IgG2, kappa, V domains shown)
VH: QVQLVQSGAEVKKPGASVKVSCEASGYTFTSYGIDWVRQAPGQGLEWMGWISVYSGNTNYAQKLQGRVTMSTDTSTSTAYMELRSLRSDDTAVYYCAREGSSSSGDYYYGMDVWGQGTTVTVSS
VL: DIVMTQTPLSLSVTPGQPASISCKSNQSLLYSDGKTYLFWYLQKPGQPPQLLIYEVSNRFSGVPDRFSGSGSGTDFTLKISRVEAEDVGVYYCMQSIQLPWTFGQGTKVEIKR
not listed: [5]
binds: all other assays above

B5: modified anti-MAdCAM monoclonal antibody 7.26.4-mod (antibody, human IgG2, kappa, V domains shown)
VH: QVQLVQSGAEVKKPGASVKVSCEASGYTFTSYGIDWVRQAPGQGLEWMGWISVYSGNTNYAQKLQGRVTMSTDTSTSTAYMELRSLRSDDTAVYYCAREGSSSSGDYYYGMDVWGQGTTVTVSS
VL: DIVMTQTPLSLSVTPGQPASISCKSSQSLLYSDGKTYLFWYLQKPGQPPQLLIYEVSNRFSGVPDRFSGSGSGTDFTLKISRVEAEDVGVYYCMQSIQLPWTFGQGTKVEIKR
binds: [5]

B6: modified anti-MAdCAM monoclonal antibody 6.77.1-mod (antibody, human IgG2, kappa, V domains shown)
VH: EVQLVESGGGLVKPGGSLRLSCAASGFTFSSYSMNWVRQAPGKGLEWVSSISSSSSYIYYADSVKGRFTISRDNAKNSLYLQMNSLRAEDTAVYYCARDGYSSGWSYYYYYGMDVWGQGTTVTVSS
VL: DIVMTQTPLSLSVTPGQPASISCKSSQSLLLSDGKTYLNWYLQKPGQPPQLLIYEVSNRFSGVPDRFSGSGSGTDFTLKISRVEAEDVGVYSCMQSIQLMSSFGQGTKLEIKR
binds: [5]

B7: anti-MAdCAM monoclonal antibody 6.77.1 (antibody, human IgG4, kappa, V domains shown)
VH: EVQLVESGGGLVKPGGSLRLSCAASGFTFSSYSMNWVRQAPGKGLEWVSSISSSSSYIYYADSVKGRFTISRDNAKNSLYLQMNSLRAEDTAVYYCARDGYSSGWSYYYYYGMDVWGQGTTVTVSS
VL: DIVMTQTPLSLSVTPGQPASISCNSSQSLLLSDGKTYLNWYLQKPGQPPQLLIYEVSNRFSGVPDRFSGSGSGTDFTLKISRVEAEDVGVYSCMQSIQLMCSFGQGTKLEIKR
not listed: [5]
binds: all other assays above

B8: anti-MAdCAM monoclonal antibody 6.14.2 (antibody, human IgG4, kappa, V domains shown)
VH: EVQLLESGGGLVQPGGSLRLSCAASGLTFNNSAMTWVRQAPGKGLEWVSTTSGSGGTTYYADSVKGRFTISRDSPKNTLYLQMNSLRAEDTAVYYCAARGYSYGTTPYEYWGQGTLVTVSS
VL: DIQMTQSPSSLSASVGDRVTITCRASRSISSYLNWYQQKPGKAPKVLIFFVSSLQSGVPSRFSGSGSGTDFTLTISSLQPEDFATYYCQQNYIPPITFGQGTRLEIRR
not listed: [5]
binds: all other assays above

B9: anti-MAdCAM monoclonal antibody 6.22.2 (antibody, human IgG4, kappa, V domains shown)
VH: QVQLVESGGGVVQPGRSLRLSCAASGHTFSSDGMHWVRQAPGKGLEWVAIIWYDGSNKYYADSVKGRFTISRDNSKNTLYLQMNSLRAEDTAVYYCARDPGYYYGMDVWGQGTTVTVSS
VL: EIVLTQSPDFQSVTPKEKVTITCRASQRIGSSLHWYQQKPDQSPKLLIKYASQSFSGVPSRFSGSGSGTNFTLTINGLEAEDAATYYCHQSGRLPLTFGGGTKVEIKR
not listed: [5]
binds: all other assays above
